We go through one substance from PMC4860834.

The target of the assay is T1, His-tagged dysbindin-1A (human) (UniProt Q96EV8).
T1 sequence: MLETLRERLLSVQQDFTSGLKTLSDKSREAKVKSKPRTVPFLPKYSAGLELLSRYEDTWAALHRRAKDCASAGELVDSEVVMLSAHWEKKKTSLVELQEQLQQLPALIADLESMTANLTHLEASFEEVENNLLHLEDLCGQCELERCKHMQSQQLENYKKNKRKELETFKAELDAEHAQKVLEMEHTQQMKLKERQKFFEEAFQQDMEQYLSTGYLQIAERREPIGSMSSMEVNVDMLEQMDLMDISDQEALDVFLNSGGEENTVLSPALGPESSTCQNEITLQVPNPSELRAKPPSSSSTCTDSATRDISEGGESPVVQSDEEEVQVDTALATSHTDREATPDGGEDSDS
The assay is described as follows: pull-down; His-tag pull-down: purified His-tagged bait (His-dysbindin-1A or His-Smt3) incubated with cell lysates holding HA-tagged dysbindin-1A or -1B; HA-tagged proteins detected in the pull-down fraction; only the target purified.

These are yes or no findings as the source states them, for the method shown. In cells and extracts the contact can be indirect. Binding calls can cover weak binding; strength is not graded here. Where a sequence is shown, tags or fusion partners need not be part of it.

Take “HA-tagged dysbindin-1B (from UniProt Q96EV8-2)”: the binding result is listed as “binds”.
